Test results taken from the supplement of paper PMC10849652.
This is one part of the list.

Protein sequences, listed by entry. Tags and fused reporters are not part of them. Lines headed by an entry give the natural chain unless they say otherwise; changes in a name come on top.
UniProt Q12866: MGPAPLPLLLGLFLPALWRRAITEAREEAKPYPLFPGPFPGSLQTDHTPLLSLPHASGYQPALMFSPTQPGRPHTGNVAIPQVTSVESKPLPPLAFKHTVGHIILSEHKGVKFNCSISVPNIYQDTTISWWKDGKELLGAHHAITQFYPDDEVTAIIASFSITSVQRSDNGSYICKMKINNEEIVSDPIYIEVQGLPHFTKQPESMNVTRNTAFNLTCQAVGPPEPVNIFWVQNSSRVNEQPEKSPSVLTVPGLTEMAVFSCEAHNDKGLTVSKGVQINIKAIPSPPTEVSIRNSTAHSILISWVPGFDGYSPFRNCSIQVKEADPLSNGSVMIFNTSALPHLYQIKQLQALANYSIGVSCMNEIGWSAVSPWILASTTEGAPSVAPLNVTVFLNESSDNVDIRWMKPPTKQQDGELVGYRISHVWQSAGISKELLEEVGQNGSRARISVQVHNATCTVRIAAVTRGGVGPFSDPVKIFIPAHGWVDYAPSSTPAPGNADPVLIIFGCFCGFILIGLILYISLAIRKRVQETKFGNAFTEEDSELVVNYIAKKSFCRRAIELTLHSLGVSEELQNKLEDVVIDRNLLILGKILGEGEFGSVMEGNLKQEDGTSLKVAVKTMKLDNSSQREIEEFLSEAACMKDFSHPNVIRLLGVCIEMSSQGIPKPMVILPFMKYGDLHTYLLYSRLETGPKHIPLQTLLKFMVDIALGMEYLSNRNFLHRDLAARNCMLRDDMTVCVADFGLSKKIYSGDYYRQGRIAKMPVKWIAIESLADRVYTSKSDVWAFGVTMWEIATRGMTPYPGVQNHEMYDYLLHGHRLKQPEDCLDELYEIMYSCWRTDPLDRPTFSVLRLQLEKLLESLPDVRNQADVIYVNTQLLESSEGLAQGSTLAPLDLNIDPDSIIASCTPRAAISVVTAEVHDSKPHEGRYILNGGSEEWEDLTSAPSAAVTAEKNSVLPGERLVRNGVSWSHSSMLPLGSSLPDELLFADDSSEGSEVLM
UniProt Q9UQ53: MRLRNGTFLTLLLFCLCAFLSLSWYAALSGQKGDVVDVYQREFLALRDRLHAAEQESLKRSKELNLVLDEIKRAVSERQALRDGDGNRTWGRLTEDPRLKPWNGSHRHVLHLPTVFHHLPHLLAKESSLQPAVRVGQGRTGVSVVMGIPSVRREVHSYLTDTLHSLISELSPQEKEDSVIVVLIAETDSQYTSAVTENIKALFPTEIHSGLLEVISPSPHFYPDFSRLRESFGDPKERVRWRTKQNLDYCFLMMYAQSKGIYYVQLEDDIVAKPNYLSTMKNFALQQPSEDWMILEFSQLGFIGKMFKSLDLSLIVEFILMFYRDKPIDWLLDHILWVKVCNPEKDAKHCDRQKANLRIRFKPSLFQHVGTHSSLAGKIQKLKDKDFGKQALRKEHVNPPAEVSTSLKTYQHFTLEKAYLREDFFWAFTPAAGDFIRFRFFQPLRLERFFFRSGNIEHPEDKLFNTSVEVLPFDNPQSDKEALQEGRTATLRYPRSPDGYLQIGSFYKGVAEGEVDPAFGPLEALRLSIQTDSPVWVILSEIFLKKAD
UniProt Q9H1A3: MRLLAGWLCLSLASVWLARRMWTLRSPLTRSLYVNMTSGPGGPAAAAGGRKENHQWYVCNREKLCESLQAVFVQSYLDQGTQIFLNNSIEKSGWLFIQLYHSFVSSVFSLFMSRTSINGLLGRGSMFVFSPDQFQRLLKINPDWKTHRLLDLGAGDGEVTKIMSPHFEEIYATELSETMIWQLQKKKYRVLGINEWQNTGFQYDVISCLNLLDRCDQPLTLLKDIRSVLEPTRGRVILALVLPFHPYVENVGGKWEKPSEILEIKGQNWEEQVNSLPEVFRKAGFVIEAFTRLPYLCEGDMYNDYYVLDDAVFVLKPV
UniProt Q16626: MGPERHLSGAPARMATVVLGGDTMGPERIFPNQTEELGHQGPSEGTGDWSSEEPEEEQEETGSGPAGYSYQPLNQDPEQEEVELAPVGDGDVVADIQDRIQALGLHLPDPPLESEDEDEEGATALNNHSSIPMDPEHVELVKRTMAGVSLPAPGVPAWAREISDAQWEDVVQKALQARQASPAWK
UniProt P40926: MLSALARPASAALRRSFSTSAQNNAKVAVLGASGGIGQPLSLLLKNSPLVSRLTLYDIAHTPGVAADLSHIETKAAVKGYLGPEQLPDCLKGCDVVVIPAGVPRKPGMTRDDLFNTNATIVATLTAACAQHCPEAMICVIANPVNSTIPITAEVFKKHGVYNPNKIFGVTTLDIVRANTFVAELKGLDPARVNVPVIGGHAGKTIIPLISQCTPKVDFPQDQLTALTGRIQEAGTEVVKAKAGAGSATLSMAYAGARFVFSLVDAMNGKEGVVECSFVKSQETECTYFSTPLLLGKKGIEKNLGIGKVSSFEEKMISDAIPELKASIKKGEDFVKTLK
UniProt P56270: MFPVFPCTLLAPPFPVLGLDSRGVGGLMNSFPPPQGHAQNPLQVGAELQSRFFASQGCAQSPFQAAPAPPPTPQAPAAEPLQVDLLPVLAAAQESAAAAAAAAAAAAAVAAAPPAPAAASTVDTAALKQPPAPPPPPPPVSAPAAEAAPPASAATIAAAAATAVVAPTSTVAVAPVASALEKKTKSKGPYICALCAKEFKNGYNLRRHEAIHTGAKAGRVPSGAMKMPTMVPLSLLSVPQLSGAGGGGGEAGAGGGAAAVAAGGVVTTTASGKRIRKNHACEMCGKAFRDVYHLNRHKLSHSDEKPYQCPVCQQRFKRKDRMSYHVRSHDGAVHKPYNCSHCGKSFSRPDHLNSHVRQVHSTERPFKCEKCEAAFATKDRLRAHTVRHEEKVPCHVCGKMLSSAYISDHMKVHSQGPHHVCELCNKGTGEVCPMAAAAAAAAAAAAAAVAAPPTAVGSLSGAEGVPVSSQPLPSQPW
UniProt Q9Y3C7: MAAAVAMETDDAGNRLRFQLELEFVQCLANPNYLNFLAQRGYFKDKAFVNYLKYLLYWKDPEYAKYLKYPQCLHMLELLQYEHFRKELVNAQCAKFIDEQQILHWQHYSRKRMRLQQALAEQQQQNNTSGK
UniProt Q8TCB7: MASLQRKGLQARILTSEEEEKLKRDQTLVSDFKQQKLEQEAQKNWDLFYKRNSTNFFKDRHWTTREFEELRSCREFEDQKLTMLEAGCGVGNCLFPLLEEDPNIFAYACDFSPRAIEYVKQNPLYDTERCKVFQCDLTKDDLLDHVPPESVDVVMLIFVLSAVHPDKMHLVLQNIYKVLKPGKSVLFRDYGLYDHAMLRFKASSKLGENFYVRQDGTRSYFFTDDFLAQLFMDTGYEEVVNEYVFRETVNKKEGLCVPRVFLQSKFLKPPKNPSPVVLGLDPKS
UniProt Q9NS73: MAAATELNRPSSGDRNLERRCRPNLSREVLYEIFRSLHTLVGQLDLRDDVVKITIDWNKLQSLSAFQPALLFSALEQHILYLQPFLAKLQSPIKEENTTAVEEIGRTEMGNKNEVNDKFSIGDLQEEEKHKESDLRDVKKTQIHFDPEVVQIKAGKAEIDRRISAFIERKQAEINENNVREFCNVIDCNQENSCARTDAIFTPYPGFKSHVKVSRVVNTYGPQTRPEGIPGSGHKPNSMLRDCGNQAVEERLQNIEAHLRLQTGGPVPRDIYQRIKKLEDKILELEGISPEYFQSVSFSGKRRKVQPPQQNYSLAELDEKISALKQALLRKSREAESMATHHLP
UniProt Q7L590: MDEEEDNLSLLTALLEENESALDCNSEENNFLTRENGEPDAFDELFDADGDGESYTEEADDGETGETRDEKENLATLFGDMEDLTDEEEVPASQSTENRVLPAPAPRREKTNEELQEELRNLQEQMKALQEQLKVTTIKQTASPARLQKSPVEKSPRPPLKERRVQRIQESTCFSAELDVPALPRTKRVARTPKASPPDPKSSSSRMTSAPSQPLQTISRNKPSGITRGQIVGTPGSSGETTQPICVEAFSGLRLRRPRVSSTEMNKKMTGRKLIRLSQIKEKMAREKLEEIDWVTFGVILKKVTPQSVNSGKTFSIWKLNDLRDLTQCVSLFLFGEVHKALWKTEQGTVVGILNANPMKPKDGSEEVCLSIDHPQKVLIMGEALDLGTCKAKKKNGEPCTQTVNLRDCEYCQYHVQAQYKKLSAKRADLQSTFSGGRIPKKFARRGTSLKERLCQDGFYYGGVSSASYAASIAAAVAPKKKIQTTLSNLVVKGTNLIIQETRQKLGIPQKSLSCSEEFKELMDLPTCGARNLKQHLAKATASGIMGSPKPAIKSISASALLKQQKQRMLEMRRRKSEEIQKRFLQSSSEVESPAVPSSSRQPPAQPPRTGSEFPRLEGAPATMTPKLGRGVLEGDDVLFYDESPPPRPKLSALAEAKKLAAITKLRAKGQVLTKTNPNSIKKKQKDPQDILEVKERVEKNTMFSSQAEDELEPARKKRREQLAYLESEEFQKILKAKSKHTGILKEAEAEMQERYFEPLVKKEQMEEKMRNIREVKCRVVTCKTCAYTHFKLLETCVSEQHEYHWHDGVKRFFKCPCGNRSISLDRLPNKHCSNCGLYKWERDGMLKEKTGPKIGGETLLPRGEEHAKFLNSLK
UniProt P55082: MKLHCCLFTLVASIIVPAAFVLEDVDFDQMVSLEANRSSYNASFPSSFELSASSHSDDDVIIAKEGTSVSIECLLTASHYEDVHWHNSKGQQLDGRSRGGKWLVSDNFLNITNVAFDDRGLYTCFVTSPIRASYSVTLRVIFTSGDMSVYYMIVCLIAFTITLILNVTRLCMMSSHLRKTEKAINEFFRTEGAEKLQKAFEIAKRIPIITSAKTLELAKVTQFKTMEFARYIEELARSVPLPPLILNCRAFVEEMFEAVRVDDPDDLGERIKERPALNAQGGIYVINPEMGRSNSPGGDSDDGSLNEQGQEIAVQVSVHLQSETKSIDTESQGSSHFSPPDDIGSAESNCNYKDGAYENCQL
UniProt A0JLT2: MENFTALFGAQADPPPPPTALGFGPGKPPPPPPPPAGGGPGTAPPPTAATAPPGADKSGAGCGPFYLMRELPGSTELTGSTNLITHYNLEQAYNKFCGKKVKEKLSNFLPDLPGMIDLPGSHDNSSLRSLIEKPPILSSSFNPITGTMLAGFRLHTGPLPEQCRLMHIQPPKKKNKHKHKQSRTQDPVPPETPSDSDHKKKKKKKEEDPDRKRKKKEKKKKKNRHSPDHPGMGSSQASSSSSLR
UniProt Q9BTT4: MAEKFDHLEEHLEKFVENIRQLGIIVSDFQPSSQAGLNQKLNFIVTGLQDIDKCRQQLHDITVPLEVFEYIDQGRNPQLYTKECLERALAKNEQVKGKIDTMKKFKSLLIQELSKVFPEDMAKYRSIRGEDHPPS
UniProt Q8TDD5: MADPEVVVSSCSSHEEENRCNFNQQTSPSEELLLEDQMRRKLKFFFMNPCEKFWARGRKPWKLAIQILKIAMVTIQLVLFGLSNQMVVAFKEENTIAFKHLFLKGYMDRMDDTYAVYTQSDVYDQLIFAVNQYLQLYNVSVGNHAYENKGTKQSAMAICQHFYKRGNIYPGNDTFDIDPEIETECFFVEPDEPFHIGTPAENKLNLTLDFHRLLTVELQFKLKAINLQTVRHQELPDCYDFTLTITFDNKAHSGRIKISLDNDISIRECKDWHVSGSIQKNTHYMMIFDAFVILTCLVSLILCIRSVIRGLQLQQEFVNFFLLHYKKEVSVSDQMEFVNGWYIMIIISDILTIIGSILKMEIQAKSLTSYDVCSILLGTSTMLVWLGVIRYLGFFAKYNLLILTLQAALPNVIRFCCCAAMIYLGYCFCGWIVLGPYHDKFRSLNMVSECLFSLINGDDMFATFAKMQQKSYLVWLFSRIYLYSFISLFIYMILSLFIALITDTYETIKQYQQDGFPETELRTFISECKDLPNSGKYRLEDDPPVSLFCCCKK
UniProt O60291: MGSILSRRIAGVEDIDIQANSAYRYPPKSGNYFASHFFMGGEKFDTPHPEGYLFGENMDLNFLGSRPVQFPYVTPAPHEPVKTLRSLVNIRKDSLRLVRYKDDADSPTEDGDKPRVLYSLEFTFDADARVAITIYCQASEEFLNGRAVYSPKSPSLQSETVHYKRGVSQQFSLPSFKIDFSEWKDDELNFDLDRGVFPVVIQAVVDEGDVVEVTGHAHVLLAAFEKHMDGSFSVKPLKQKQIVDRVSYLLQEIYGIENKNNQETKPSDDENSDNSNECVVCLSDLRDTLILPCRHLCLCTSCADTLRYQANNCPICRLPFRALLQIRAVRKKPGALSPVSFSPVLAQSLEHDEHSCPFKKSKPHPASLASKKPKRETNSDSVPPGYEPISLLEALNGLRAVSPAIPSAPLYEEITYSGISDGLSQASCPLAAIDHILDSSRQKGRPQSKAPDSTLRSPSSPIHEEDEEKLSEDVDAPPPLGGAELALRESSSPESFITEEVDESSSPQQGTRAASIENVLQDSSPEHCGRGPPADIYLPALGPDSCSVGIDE

Key:
Experiment in all cases: log2 fold change, soluble protein after heating vs DMSO (PISA); higher = thermal stabilisation; K562 cells, 10 uM, 30 min; active = over 0.2 and 3.5 SD of the protein, either way, in both replicates (recomputed)
[1] = compound: C1=CC=C(C=C1)[C@H](COC2=CC3=C(C=C2)NC(=O)N3)NC(=O)C4=CC=CN(C4=O)CC5=CC(=C(C=C5)F)F
In short: (§1)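 K562 cells at 2×10^6 cells/mL were treated for 30 min with 10 μM compound, and aliquots were heated for 3 min over 48°C-58°C before pooling. Extraction used PBS with 0.5% NP-40 at 4°C, and soluble protein was the supernatant after 21,000xg for 90 min, measured by TMTpro 16plex LC-MS/MS with channel sums equalised. Thermal stability values, relative to control samples and from duplicates, are log2 fold changes.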

[2] = compound: CC1=C(SC2=C1C(=N[C@H](C3=NN=C(N32)C)CC(=O)N)C4=CC=C(C=C4)Cl)C
In short: as §1

[3] = compound: CC1=C2C(=CC=C1)N=C(N(C2=O)C3=CC=CC=C3C)CN4C=NC5=C(N=CN=C54)N
In short: as §1

[4] = compound: Cc1sc2c(c1C)C(c1ccc(Cl)cc1)=N[C@@H](CC(=O)OC(C)(C)C)c1nnc(C)n1-2
In short: as §1

[5] = compound: c1ccc([C@@H]2C[C@H]2NC2CCNCC2)cc1
In short: as §1

Measured: log2 fold change

MERTK (UniProt Q12866)
inactive: [1] -0.073 | [2] 0.006 | [3] -0.053 | [4] 0.039 | [5] 0.062

MGAT4B isoform 3 (UniProt Q9UQ53)
inactive: [1] -0.022 | [2] -0.018 | [3] 0.102 | [4] -0.074 | [5] 0.026

METTL9 (UniProt Q9H1A3)
inactive: [1] 0.167 | [2] 0.143 | [3] 0.066 | [4] 0.075 | [5] 0.16

MEA1 (UniProt Q16626)
inactive: [1] 0.007 | [2] 0.064 | [3] -0.011 | [4] 0.025 | [5] 0.169

MDH2 (UniProt P40926)
inactive: [1] 0.021 | [2] 0.013 | [3] -0.011 | [4] 0.006 | [5] 0.016

MAZ isoform 2 (UniProt P56270)
inactive: [1] 0.07 | [2] -0.299 | [3] -0.212 | [4] 0.169 | [5] 0.121

MED31 (UniProt Q9Y3C7)
inactive: [3] 0.035

METTL6 (UniProt Q8TCB7)
inactive: [1] -0.116 | [2] 0.001 | [4] 0.017 | [5] 0.053

MBIP (UniProt Q9NS73)
inactive: [1] 0.18 | [3] 0.112 | [4] -0.011

MCM10 (UniProt Q7L590)
inactive: [1] -0.04 | [3] 0.204 | [4] 0.032

MFAP3 (UniProt P55082)
inactive: [1] 0.007 | [3] 0.25 | [4] -0.155

MED19 (UniProt A0JLT2)
inactive: [1] 0.005 | [3] -0.08

MED10 (UniProt Q9BTT4)
inactive: [2] 0.043 | [3] -0.108 | [4] -0.075 | [5] 0.03

MCOLN3 (UniProt Q8TDD5)
inactive: [1] -0.075 | [4] 0.039

MGRN1 isoform 2 (UniProt O60291)
inactive: [1] -0.088 | [2] -0.004 | [4] 0.036 | [5] 0.086

Two entries picked at random from the list so far:
MGRN1 isoform 2 (UniProt O60291)
inactive: [1] -0.088 | [2] -0.004 | [4] 0.036 | [5] 0.086

MCOLN3 (UniProt Q8TDD5)
inactive: [1] -0.075 | [4] 0.039
